Results from the supplement of paper PMC12819154, “High-throughput peptide-centric local stability assay extends protein–ligand identification to membrane proteins, tissues and bacteria” (Nature Structural & Molecular Biology, 2025).
The other results are listed elsewhere or left out. Most values lie at the level of the controls, where differences are scatter.

Protein sequences, listed by entry. Tags and fused reporters are not part of them. Lines headed by an entry give the natural chain unless they say otherwise; changes in a name come on top.
UniProt Q9BXL5: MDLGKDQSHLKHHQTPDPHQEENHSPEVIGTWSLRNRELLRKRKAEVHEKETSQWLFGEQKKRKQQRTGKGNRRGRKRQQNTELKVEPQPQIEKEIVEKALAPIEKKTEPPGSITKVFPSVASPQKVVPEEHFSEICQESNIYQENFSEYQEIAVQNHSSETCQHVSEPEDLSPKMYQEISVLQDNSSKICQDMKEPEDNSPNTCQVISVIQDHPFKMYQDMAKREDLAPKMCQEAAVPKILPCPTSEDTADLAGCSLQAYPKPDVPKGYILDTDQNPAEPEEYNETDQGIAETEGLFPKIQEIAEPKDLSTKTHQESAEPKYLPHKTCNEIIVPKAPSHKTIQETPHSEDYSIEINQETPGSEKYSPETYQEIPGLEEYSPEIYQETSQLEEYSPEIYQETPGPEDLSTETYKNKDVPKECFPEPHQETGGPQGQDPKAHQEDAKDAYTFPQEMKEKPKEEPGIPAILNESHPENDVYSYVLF
UniProt Q9H3P2, whole entry: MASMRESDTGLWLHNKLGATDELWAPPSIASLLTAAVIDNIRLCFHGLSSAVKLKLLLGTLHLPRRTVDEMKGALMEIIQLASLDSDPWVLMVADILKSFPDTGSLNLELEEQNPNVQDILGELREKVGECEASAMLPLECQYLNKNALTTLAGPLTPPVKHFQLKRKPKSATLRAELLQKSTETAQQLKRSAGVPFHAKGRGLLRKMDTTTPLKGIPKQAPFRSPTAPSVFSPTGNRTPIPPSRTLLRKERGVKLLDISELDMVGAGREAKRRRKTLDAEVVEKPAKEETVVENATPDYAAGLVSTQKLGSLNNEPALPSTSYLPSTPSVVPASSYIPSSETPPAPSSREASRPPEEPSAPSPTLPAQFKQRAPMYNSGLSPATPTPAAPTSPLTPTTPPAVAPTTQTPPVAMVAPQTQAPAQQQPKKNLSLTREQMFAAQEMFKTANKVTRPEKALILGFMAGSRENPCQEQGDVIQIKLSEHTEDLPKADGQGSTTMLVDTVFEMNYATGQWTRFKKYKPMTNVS
UniProt Q9BWH6: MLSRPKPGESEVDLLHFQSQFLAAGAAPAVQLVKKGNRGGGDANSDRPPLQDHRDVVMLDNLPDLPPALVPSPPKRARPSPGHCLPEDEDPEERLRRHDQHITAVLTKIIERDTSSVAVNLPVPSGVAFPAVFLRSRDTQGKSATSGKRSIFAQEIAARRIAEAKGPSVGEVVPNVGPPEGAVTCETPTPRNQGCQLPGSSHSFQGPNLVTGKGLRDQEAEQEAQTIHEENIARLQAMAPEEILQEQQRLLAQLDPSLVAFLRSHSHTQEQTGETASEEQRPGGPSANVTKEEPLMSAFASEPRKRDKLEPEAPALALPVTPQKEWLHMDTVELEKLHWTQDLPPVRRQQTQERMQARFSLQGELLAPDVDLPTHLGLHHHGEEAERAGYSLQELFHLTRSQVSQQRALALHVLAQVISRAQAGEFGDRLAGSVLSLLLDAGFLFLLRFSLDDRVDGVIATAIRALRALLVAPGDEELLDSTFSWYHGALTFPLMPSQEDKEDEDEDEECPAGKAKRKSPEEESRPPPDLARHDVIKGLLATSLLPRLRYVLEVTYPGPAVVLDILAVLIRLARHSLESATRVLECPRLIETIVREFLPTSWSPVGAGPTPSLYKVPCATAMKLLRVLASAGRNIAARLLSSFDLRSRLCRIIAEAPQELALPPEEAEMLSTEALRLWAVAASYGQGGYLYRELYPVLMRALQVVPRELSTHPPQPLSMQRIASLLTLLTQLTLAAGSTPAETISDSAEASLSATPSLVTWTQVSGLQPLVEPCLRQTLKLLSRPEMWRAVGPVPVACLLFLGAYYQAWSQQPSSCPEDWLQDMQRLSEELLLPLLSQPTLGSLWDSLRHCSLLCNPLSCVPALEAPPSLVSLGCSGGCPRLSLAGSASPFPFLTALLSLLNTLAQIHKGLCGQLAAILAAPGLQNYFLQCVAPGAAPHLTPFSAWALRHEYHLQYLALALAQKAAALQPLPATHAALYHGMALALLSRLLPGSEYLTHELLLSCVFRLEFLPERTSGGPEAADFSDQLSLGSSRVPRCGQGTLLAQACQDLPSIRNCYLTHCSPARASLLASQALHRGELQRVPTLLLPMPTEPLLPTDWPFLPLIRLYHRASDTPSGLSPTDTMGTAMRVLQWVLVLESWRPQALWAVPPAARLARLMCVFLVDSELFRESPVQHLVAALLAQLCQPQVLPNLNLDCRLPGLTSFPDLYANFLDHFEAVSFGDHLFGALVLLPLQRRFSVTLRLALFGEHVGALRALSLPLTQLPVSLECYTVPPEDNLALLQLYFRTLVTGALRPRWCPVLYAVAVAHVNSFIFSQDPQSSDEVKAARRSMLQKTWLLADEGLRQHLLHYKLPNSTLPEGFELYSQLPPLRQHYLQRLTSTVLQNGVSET
UniProt Q9C086, whole entry: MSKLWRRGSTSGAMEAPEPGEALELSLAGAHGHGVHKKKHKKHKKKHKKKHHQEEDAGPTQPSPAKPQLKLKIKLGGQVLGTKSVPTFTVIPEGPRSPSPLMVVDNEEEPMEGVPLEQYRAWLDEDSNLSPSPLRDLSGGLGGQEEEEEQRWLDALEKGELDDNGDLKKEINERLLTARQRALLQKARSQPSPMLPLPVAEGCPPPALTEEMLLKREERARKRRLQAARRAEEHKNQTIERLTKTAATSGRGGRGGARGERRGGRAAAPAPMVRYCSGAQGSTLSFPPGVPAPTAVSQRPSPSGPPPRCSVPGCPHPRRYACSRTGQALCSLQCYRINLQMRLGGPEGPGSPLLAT
UniProt Q9BZG8: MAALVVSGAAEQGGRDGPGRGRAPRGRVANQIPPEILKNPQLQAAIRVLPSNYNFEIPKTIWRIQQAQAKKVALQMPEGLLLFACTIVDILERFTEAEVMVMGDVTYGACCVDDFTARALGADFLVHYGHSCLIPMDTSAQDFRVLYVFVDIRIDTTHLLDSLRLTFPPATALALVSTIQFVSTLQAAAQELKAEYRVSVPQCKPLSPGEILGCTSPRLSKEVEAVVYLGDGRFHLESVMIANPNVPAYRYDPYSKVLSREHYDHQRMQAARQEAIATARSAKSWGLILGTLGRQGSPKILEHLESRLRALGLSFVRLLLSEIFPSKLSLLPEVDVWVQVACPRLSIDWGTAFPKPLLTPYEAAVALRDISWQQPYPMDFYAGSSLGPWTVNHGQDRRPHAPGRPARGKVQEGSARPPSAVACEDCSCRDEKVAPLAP
UniProt Q9BXI6: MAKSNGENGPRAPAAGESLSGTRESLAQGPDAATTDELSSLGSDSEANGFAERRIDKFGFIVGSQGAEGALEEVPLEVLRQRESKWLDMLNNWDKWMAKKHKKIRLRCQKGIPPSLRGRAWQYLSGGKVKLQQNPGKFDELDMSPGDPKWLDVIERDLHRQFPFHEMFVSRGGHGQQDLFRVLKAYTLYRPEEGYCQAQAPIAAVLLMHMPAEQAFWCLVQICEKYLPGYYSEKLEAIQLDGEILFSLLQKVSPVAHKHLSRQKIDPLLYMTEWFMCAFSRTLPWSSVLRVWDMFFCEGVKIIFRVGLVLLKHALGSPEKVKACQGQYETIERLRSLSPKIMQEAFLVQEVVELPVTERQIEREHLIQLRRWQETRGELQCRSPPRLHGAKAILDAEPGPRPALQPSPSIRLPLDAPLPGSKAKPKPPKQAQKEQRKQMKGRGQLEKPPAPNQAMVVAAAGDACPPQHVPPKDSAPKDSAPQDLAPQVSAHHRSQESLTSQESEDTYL
UniProt Q9BYX4: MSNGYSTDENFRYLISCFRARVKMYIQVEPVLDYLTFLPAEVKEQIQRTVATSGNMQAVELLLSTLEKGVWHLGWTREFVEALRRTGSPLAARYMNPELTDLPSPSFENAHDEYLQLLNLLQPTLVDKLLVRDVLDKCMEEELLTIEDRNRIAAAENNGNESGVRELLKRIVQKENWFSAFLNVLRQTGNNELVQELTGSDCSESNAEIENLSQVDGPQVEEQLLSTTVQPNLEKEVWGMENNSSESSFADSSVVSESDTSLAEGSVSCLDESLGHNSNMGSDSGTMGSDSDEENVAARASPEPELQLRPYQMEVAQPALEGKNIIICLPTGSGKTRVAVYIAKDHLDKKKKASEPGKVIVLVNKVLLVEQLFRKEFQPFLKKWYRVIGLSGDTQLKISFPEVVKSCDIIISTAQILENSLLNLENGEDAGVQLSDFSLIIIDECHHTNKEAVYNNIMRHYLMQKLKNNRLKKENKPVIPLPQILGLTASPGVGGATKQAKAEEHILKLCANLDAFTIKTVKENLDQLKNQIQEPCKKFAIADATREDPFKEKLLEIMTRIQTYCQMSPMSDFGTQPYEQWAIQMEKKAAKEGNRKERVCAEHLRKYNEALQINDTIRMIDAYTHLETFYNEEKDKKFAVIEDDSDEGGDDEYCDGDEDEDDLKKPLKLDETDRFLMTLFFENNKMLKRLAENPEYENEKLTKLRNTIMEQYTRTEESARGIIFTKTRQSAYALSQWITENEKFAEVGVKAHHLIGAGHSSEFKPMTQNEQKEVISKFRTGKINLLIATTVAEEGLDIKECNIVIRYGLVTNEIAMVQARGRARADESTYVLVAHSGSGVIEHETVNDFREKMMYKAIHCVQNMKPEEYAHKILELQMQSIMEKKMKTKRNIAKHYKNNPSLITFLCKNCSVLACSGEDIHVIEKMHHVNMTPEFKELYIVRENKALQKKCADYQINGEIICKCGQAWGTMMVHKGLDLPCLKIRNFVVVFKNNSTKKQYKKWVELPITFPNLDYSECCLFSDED
UniProt Q9H2G4: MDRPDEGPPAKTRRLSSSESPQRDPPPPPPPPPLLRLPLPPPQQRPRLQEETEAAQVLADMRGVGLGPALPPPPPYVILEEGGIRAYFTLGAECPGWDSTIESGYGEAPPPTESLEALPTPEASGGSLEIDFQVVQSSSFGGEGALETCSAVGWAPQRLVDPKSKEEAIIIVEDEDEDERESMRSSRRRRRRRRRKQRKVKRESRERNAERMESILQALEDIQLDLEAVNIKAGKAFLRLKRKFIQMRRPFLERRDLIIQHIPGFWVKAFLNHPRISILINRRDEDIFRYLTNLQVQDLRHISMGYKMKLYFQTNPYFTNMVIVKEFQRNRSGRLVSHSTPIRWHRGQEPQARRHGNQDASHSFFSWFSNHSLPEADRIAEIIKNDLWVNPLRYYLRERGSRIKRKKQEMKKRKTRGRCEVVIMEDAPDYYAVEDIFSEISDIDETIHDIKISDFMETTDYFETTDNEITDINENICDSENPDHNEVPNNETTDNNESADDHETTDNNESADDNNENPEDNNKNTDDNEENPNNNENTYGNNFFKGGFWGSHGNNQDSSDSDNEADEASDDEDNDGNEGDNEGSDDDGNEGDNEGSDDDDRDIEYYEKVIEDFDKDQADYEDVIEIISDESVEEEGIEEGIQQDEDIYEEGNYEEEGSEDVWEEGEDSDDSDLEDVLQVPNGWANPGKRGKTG

compound: CN[C@@H]1C[C@H]2O[C@@](C)([C@@H]1OC)n1c3ccccc3c3c4c(c5c6ccccc6n2c5c31)C(=O)NC4 [staurosporine]; experiment: log2 fold change of tryptic peptide abundance, ligand vs vehicle (limited proteolysis) (log2 ratio); higher = more trypsin-susceptible (destabilized); conditions: ligand concentration: 20 uM; sample: K562 cleared lysate; digestion: 4 min, 22 C (HT-PELSA RT4min, Orbitrap Astral)

| Target | log2 fold change |
| --- | --- |
| HEMGN (peptide sequence: ETSQWLFGEQKK, peptide start residue: 51) (UniProt Q9BXL5) | -0.197 |
| UniProt Q9H3P2 (peptide sequence: ALILGFMAGSR, peptide start residue: 457) | -0.0987 |
| RPAP1 (peptide sequence: LLAQLDPSLVAFLR, peptide start residue: 250) (UniProt Q9BWH6) | -0.192 |
| INO80B (peptide sequence: LGGQVLGTK, peptide start residue: 75) (UniProt Q9C086) | 0.098 |
| DPH1 (peptide sequence: GKVQEGSARPPSAVACEDCSCR, peptide start residue: 413) (UniProt Q9BZG8) | -0.278 |
| TBC1D10A (peptide sequence: WLDMLNNWDKWMAK, peptide start residue: 86) (UniProt Q9BXI6) | 0.324 |
| IFIH1 (peptide sequence: VLLVEQLFR, peptide start residue: 366) (UniProt Q9BYX4) | -0.0465 |
| MRPL32 (peptide sequence: NNIDVCPECGHLK, peptide start residue: 105) (UniProt Q9BYC8) | 0.0589 |
| TSPYL2 (peptide sequence: SKEEAIIIVEDEDEDERESMR, peptide start residue: 164) (UniProt Q9H2G4) | 0.374 |
